# Percent effect of library compounds

Each number is a percent effect as filed. How 0% and 100% were set is not recorded. Most values in the screen are low, and negative values occur. The compounds are a random part of those screened. Two or more numbers in one place are separate tests of the same structure; such repeats can differ widely.

A: 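Growth of Mycobacterium tuberculosis over 3 days (7H9 medium with glucose and tyloxapol); the read-out is not stated. Tested at 50 µM. The record gives no direction; compounds that gave an IC50 in retests scored well above the rest, so higher reads as more growth inhibition. Size under these conditions: about 69,000 compounds, about 760 of them at 50% or above in at least one test.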
B: 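Growth of Mycobacterium tuberculosis over 4 days (cholesterol / DPPC medium with tyloxapol); the read-out is not stated. Concentration: 50 µM. The record gives no direction; compounds that gave an IC50 in retests scored well above the rest, so higher reads as more growth inhibition. Of about 69,000 compounds tested this way, about 370 (0.54%) reached 50% or more in at least one test.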

| SMILES | A | B |
|---|---|---|
| `CCn1cncc1-c1nc2c([nH]1)CC(C)(C)CNC2=O` | 14.86 | -8.791 & -12.24 |
| `O=C(NCCCc1ccc(F)cc1)c1ccc(N2CCOCC2)cc1` | -6.954 | 6.572 |
| `Cn1cc(CNC[C@H]2Cn3ccnc3CO2)c2ccccc21` | -7.754 & -10.64 | -26.49 |
| `CCC1(c2ccc(NS(=O)(=O)N(C)C)cc2)CCC(=O)NC1=O` (stereo not drawn) | 18.58 | 2.45 |
| `Cc1cc2[nH]c(O)nc2cc1NCc1ccc(F)cc1` | 22.31 & 59.64 | -6.299 |
| `[H][C@@]12OCCN(S(=O)(=O)c3cn(C)cn3)[C@@]1([H])CC[C@H]2OCC` | 6.18 | -14.79 |
| `Cn1ccc(CN2CCC(CO)CC2)cc1=O` | -29.43 | -4.094 |
| `Cc1nnc(C(C)N2CCN(Cc3ccc(C#N)cc3)CC2)o1` (stereo not drawn) | 18.56 | 13.02 |
| `CC(=O)c1cccc(S(=O)(=O)N2CCC(c3n[nH]c(C)n3)CC2)c1` | 14.79 | 30.64 |
| `Cl.O=C(c1ccoc1)N1CCC(NCc2ccccc2Cl)CC1` | 9.514 | 7.87 |
| `CN1CC(=O)N(c2ccsc2)CC12CCN(S(=O)(=O)C1CC1)C2.O=C(O)C(F)(F)F` (stereo not drawn) | -9.021 | 12.91 |
| `CN1CCN(CCCNC(=O)c2cc(Cl)c3c(c2)OCO3)CC1` | 11.36 & -0.6622 | 0.3326 |
| `CN(C)C(=O)Cc1ccc(NC(=O)NC2CCCC2)cc1` | -26.66 | -2.367 |
| `Cc1cnn(CC2CCCCN2Cc2cnc(C)s2)c1` (stereo not drawn) | 1.899 | 3.551 |
| `CCN(CC)CCNC(=O)c1ccc(-n2ccc3ccccc32)s1` | 40.05 | 18.14 |
| `[H][C@]12CN(CC=C(C)C)C[C@@]1(C(=O)O)CN(C(=O)c1ccc(CO)cc1)C2` | 23.13 | 8.973 |
| `Cc1ccc(C)c(NC(=O)Cn2cc(I)cn2)c1` | 22.03 | 3.259 |
| `O=C(O)C(F)(F)F.[H][C@@]12CN(CC3CC3)CCO[C@]1([H])CN(C(=O)c1ccn(C)n1)C2` | -21.3 & -6.298 | -29.42 |
| `CCc1ccc(-c2cn3c(C(=O)N[C@H](C(N)=O)[C@@H](C)O)csc3n2)cc1` | 2.318 | -1.588 |
| `c1ccc2c(c1)CCN2c1nc(N2CCOCC2)c2nn[nH]c2n1` | -0.3822 & -23.52 | -36.95 |
| `O=C(O)[C@@H]1CN(C(=O)CSCCN2CCCC2)C[C@H]1c1ccccc1` | -4.79 | -4.655 |
| `COCCN1CCN(Cc2cccc(C(N)=O)c2)CC1C` (stereo not drawn) | -40.84 | -74.28 |
| `CC(C)(CNC(=O)C1CCCN1S(C)(=O)=O)N1CCOCC1` (stereo not drawn) | -20.68 | -16.24 |
| `c1cnc(CC2CCN(c3cnccn3)CC2)cn1` | 8.201 | 6.186 |
| `CN(C)CCn1c(=O)oc2ccc(NC(=O)CSc3ccccc3)cc21` | 32.61 | 9.243 & 6.31 |
| `CC(C)Oc1ccccc1OCCN1C(=O)CCNC1=O` | -38.77 | -2.65 |
| `CC(C)CN1CCC2(CC1)C(=O)Nc1ccc(C(=O)N(C)C)cc12.O=C(O)C(F)(F)F` | 15.9 | -3.809 |
| `CNC(=O)c1ccc(C2CN(C(=O)c3cncs3)CCO2)nc1` (stereo not drawn) | 27.05 | -0.6596 |
| `Cn1cc(CN2CCCn3cnc(CN4CCCC4=O)c3C2)cn1` | 7.551 | 17.71 |
| `COc1cc(F)ccc1-c1ncccc1NC(=O)C(C)C` | 5.464 | 9.3 |
| `Cc1cnc(N2CCC(c3ccncc3)CC2)nc1-c1ccnn1C` | 30.48 | 35.2 & 19.78 |
| `COc1ccc(-c2nc(CN3CCCC3Cn3cccn3)no2)cc1` (stereo not drawn) | 32.28 | 4.722 |
| `CCc1nnc2ccc(NCC3(N4CCCCC4)CCOCC3)nn12` | 24.92 | 13.24 |
| `Cc1ncc(CN2CCC(N(C)Cc3noc(C4CC4)n3)C2)s1` (stereo not drawn) | -20.12 | -25.08 |
| `Cc1nc(C)n(CC2CCCN2Cc2cc(-c3cccs3)on2)n1` (stereo not drawn) | 5.589 | -11.41 |
| `CS(=O)(=O)CCC(=O)Nc1cc(F)ccc1OCC1CCCO1` (stereo not drawn) | -17.38 | -18.36 |
| `COCCCN(CCOC)C(=O)Nc1ccc(Br)cc1` | 34.24 | 5.07 |
| `Cc1ccc(C(=O)N2CCN(Cc3nc(C(C)C)no3)CC2)c(=O)[nH]1` | -16.28 | -9.513 |
| `CC(C)CC(CCO)CNC(=O)N1CC(C)(C)C1(C)C` (stereo not drawn) | -0.3585 & 0.9863 | -7.4 |
| `CN1CCCCC1CCC(=O)NCCSc1cnn[nH]1` (stereo not drawn) | -19.59 | -11.25 |
| `CC(c1cccc(Cl)c1)N1CCN(S(C)(=O)=O)CC1` (stereo not drawn) | 8.845 | 8.211 |
| `COc1ccc(CNC(=O)Nc2cccnc2OC)cc1O` | -28.9 | 4.942 |
| `O=C(C1CC1)N1CC[C@H](c2nnc(Cc3c[nH]c4ccccc34)o2)C1` | 0.9979 & -15.85 | -10.43 |
| `Cc1c[nH]c(CN(C)C(C(=O)O)c2c(F)cccc2OC(C)C)n1` (stereo not drawn) | 10.06 & -2.657 | -0.5106 |
| `CC(C)c1nc(C2CCCN2CCOCC2CC2)no1` (stereo not drawn) | 15.97 | 7.217 |
| `COCCC(=O)NCc1ccc(-c2ncncc2C(=O)N(C)C)cc1` | -7.917 | -19.2 & -8.633 |
| `O=C1N(Cc2ccc(F)cc2)CCCC12CCN(C1CCSCC1)C2` (stereo not drawn) | 49.19 & 68.7 | 21.54 |
| `CCCN(C)c1ccc(C(=O)Nc2c(C)nn(C(C)C)c2C)cc1` | 37.52 | 18.87 & 13.37 |
| `CCC(Nc1cccc(OC)c1)C(=O)N(CCO)Cc1nccs1` (stereo not drawn) | 22.52 | 5.01 |
| `CCCn1nccc1-c1cc(C2CCN(S(C)(=O)=O)CC2)ccn1` | 12.49 | -0.4077 |
| `Cc1nonc1C1CCCN1C(=O)c1cc2n(n1)CCCNC2` (stereo not drawn) | -3.891 | -22.32 |
| `O=C(c1ccc(Cn2cnnn2)cc1)N1CC[C@H](CO)[C@H](O)C1` | -11.53 | -24.28 |
| `COC(=O)c1ccc(NC(=O)CCc2ccncc2)c(C)c1` | 33.57 | -15.91 |
| `CCOCC(=O)N1C[C@@H](O)[C@H](N(C)Cc2ccc(OC)cc2)C1` | 5.368 | -2.717 |
| `c1csc(CNc2ccccc2Cn2cncn2)c1` | 4.773 | -3.378 |
| `[H][C@@]12OCCN(S(=O)(=O)C3CC3)[C@@]1([H])CC[C@H]2OCC1CCCC1` | 11.79 | 14.35 |
| `CCc1cnc2c(c1NCc1cccc(OC)c1)c(=O)n(C)c(=O)n2C` | -29.71 | -27.52 |
| `CN(C)c1ccc(C(=O)N2CCCC2c2cnn(C)c2)cn1` (stereo not drawn) | -39.45 | -16.54 |
| `Cc1ccccc1Cc1nc(CSc2nnc(N)n2C)no1` | 0.6976 & -21.66 | 5.325 |
| `Cn1ccnc1CCNC(=O)C1CCCN(Cc2cccc(F)c2)C1` (stereo not drawn) | -1.253 & -2.512 | 15.38 |
| `CC(C(=O)N(C)C)N1CCCN(C(=O)Oc2ccccc2)CC1` (stereo not drawn) | -11.08 | -1.066 |

Once more, the final 3:

{"smiles": "Cc1ccccc1Cc1nc(CSc2nnc(N)n2C)no1", "A": "0.6976 & -21.66", "B": 5.325}
{"smiles": "Cn1ccnc1CCNC(=O)C1CCCN(Cc2cccc(F)c2)C1", "stereo": "stereo not drawn", "A": "-1.253 & -2.512", "B": 15.38}
{"smiles": "CC(C(=O)N(C)C)N1CCCN(C(=O)Oc2ccccc2)CC1", "stereo": "stereo not drawn", "A": -11.08, "B": -1.066}

From ChEMBL document CHEMBL3988442, “University of Dundee, Small-Polar-MMV Screening Library” (2021).